In patent publication US11713341B1, “Antimicrobial NCR13 variant peptides” (Vestaron Corporation, priority 2022, dated 2023):
Where a SMILES comes first, the peptide text is derived from it.

System: Botrytis cinerea
Assay: Antimicrobial bioassay (Botrytis cinerea): growth inhibition by OD600
Type: cell-based
Details: relative to NCR13a; for COG Improvement: COG = Cost of goods, yield improvement times the activity improvement; for overall improvement: combining the yield improvement and activity improvement
Experimental: The antimicrobial effect of the NCR13 variant peptides (NVPs) of the present disclosure were evaluated against the fungal species, Botrytis cinerea. […] The growth of Botrytis cinerea was then assessed via OD600 nm after incubation with a given NVP at room temperature after 96 hours. The IC50 of each peptide analyzed is shown in ppm.
The antimicrobial effect of the NCR13 variant peptides (NVPs) of the present disclosure were evaluated against the fungal species, Botrytis cinerea. […] The growth of Botrytis cinerea was then assessed via OD600 nm after incubation with a given NVP at room temperature after 96 hours.
The NVPs assessed were as follows: NVPM3 (+L) (SEQ ID NO: 5); NVPM5 (+M) (SEQ ID NO: 7); NVPM6 (+F) (SEQ ID NO: 8); NVPM7 (+W) (SEQ ID NO: 9); NVPM9 (+S) (SEQ ID NO: 11); NVPM11 (+Y) (SEQ ID NO: 13); NVPM14 (+D) (SEQ ID NO: 16); and NVPM15 (+E) (SEQ ID NO: 17).
NVPs having an amino acid sequence of SEQ ID NOs: 5, 7, 8, 9, 11, 13, 16, and 17 were generated as described above in Example 1. The peptide, NCR13a, having an amino acid sequence of: […] (SEQ ID NO: 2) was selected as a comparator peptide, with which the antifungal activity of the foregoing NVPs was compared.
The fungal species was Botrytis cinerea was cultured in potato dextrose agar plates. Fungal spores were collected from the agar plates and suspended into de-ionized water, followed by enumeration in a Petroff-Hausser counting chamber (VWR).
The 96-well plates were incubated at room temperature for 96 hours without shaking. The OD600 of the culture plate was determined using SpectraMax plate reader. Relative OD600 was determined by normalizing cell growth to control wells containing neither NVPs nor NCR13a. The OD600 was used to determine IC50.

| SMILES | COG Improvement | overall improvement |
| --- | --- | --- |
| CC[C@H](C)[C@H](NC(=O)[C@H](CS)NC(=O)[C@H](CCCCN)NC(=O)[C@@H]1CCCN1C(=O)[C@@H](NC(=O)[C@H](CCCCN)NC(=O)[C@@H]1CCCN1C(=O)[C@H](CCCCN)NC(=O)[C@H](CCCNC(=N)N)NC(=O)[C@H](CS)NC(=O)[C@H](C)NC(=O)[C@H](Cc1ccccc1)NC(=O)[C@H](CCCCN)NC(=O)[C@H](CCCCN)NC(=O)[C@H](CS)NC(=O)[C@H](CC(=O)O)NC(=O)[C@H](CCCCN)NC(=O)[C@H](CC(=O)O)NC(=O)[C@H](CO)NC(=O)[C@H](CCC(N)=O)NC(=O)[C@H](CS)NC(=O)[C@@H]1CCCN1C(=O)[C@H](CCCCN)NC(=O)[C@@H](NC(=O)CN)[C@@H](C)O)C(C)C)C(=O)N[C@@H](CC(N)=O)C(=O)NCC(=O)N[C@@H](Cc1ccccc1)C(=O)N[C@@H](CS)C(=O)N[C@@H](CCCCN)C(=O)N[C@@H](CS)C(=O)N[C@H](C(=O)N[C@@H](CCCNC(=N)N)C(=O)O)C(C)C [NCR13a, reference compound] (H-GTKPCQSDKDCKKFACRKPKVPKCINGFCKCVR-OH; N-terminus and C-terminus assumed) | 1 |  |
| CC[C@H](C)[C@H](NC(=O)[C@H](CS)NC(=O)[C@H](CCCCN)NC(=O)[C@@H]1CCCN1C(=O)[C@@H](NC(=O)[C@H](CCCCN)NC(=O)[C@@H]1CCCN1C(=O)[C@H](CCCCN)NC(=O)[C@H](CCCNC(=N)N)NC(=O)[C@H](CS)NC(=O)[C@H](C)NC(=O)[C@H](Cc1ccccc1)NC(=O)[C@H](CCCCN)NC(=O)[C@H](CCCCN)NC(=O)[C@H](CS)NC(=O)[C@H](CC(=O)O)NC(=O)[C@H](CCCCN)NC(=O)[C@H](CC(=O)O)NC(=O)[C@H](CO)NC(=O)[C@H](CCC(N)=O)NC(=O)[C@H](CS)NC(=O)[C@@H]1CCCN1C(=O)[C@H](CCCCN)NC(=O)[C@@H](NC(=O)[C@H](C)N)[C@@H](C)O)C(C)C)C(=O)N[C@@H](CC(N)=O)C(=O)NCC(=O)N[C@@H](Cc1ccccc1)C(=O)N[C@@H](CS)C(=O)N[C@@H](CCCCN)C(=O)N[C@@H](CS)C(=O)N[C@H](C(=O)N[C@@H](CCCNC(=N)N)C(=O)O)C(C)C [NVPM1] (H-ATKPCQSDKDCKKFACRKPKVPKCINGFCKCVR-OH; N-terminus and C-terminus assumed) | 2.16 |  |
| CC[C@H](C)[C@H](NC(=O)[C@H](CS)NC(=O)[C@H](CCCCN)NC(=O)[C@@H]1CCCN1C(=O)[C@@H](NC(=O)[C@H](CCCCN)NC(=O)[C@@H]1CCCN1C(=O)[C@H](CCCCN)NC(=O)[C@H](CCCNC(=N)N)NC(=O)[C@H](CS)NC(=O)[C@H](C)NC(=O)[C@H](Cc1ccccc1)NC(=O)[C@H](CCCCN)NC(=O)[C@H](CCCCN)NC(=O)[C@H](CS)NC(=O)[C@H](CC(=O)O)NC(=O)[C@H](CCCCN)NC(=O)[C@H](CC(=O)O)NC(=O)[C@H](CO)NC(=O)[C@H](CCC(N)=O)NC(=O)[C@H](CS)NC(=O)[C@@H]1CCCN1C(=O)[C@H](CCCCN)NC(=O)[C@@H](NC(=O)[C@@H](N)CC(C)C)[C@@H](C)O)C(C)C)C(=O)N[C@@H](CC(N)=O)C(=O)NCC(=O)N[C@@H](Cc1ccccc1)C(=O)N[C@@H](CS)C(=O)N[C@@H](CCCCN)C(=O)N[C@@H](CS)C(=O)N[C@H](C(=O)N[C@@H](CCCNC(=N)N)C(=O)O)C(C)C [NVPM3] (H-LTKPCQSDKDCKKFACRKPKVPKCINGFCKCVR-OH; N-terminus and C-terminus assumed) | 5.27 | 5.3 fold |
| CC[C@H](C)[C@H](NC(=O)[C@H](CS)NC(=O)[C@H](CCCCN)NC(=O)[C@@H]1CCCN1C(=O)[C@@H](NC(=O)[C@H](CCCCN)NC(=O)[C@@H]1CCCN1C(=O)[C@H](CCCCN)NC(=O)[C@H](CCCNC(=N)N)NC(=O)[C@H](CS)NC(=O)[C@H](C)NC(=O)[C@H](Cc1ccccc1)NC(=O)[C@H](CCCCN)NC(=O)[C@H](CCCCN)NC(=O)[C@H](CS)NC(=O)[C@H](CC(=O)O)NC(=O)[C@H](CCCCN)NC(=O)[C@H](CC(=O)O)NC(=O)[C@H](CO)NC(=O)[C@H](CCC(N)=O)NC(=O)[C@H](CS)NC(=O)[C@@H]1CCCN1C(=O)[C@H](CCCCN)NC(=O)[C@@H](NC(=O)[C@@H](N)CCSC)[C@@H](C)O)C(C)C)C(=O)N[C@@H](CC(N)=O)C(=O)NCC(=O)N[C@@H](Cc1ccccc1)C(=O)N[C@@H](CS)C(=O)N[C@@H](CCCCN)C(=O)N[C@@H](CS)C(=O)N[C@H](C(=O)N[C@@H](CCCNC(=N)N)C(=O)O)C(C)C [NVPM5] (H-MTKPCQSDKDCKKFACRKPKVPKCINGFCKCVR-OH; N-terminus and C-terminus assumed) | 3.73 |  |
| CC[C@H](C)[C@H](NC(=O)[C@H](CS)NC(=O)[C@H](CCCCN)NC(=O)[C@@H]1CCCN1C(=O)[C@@H](NC(=O)[C@H](CCCCN)NC(=O)[C@@H]1CCCN1C(=O)[C@H](CCCCN)NC(=O)[C@H](CCCNC(=N)N)NC(=O)[C@H](CS)NC(=O)[C@H](C)NC(=O)[C@H](Cc1ccccc1)NC(=O)[C@H](CCCCN)NC(=O)[C@H](CCCCN)NC(=O)[C@H](CS)NC(=O)[C@H](CC(=O)O)NC(=O)[C@H](CCCCN)NC(=O)[C@H](CC(=O)O)NC(=O)[C@H](CO)NC(=O)[C@H](CCC(N)=O)NC(=O)[C@H](CS)NC(=O)[C@@H]1CCCN1C(=O)[C@H](CCCCN)NC(=O)[C@@H](NC(=O)[C@@H](N)Cc1ccccc1)[C@@H](C)O)C(C)C)C(=O)N[C@@H](CC(N)=O)C(=O)NCC(=O)N[C@@H](Cc1ccccc1)C(=O)N[C@@H](CS)C(=O)N[C@@H](CCCCN)C(=O)N[C@@H](CS)C(=O)N[C@H](C(=O)N[C@@H](CCCNC(=N)N)C(=O)O)C(C)C [NVPM6] (H-FTKPCQSDKDCKKFACRKPKVPKCINGFCKCVR-OH; N-terminus and C-terminus assumed) | 2.3 |  |
| CC[C@H](C)[C@H](NC(=O)[C@H](CS)NC(=O)[C@H](CCCCN)NC(=O)[C@@H]1CCCN1C(=O)[C@@H](NC(=O)[C@H](CCCCN)NC(=O)[C@@H]1CCCN1C(=O)[C@H](CCCCN)NC(=O)[C@H](CCCNC(=N)N)NC(=O)[C@H](CS)NC(=O)[C@H](C)NC(=O)[C@H](Cc1ccccc1)NC(=O)[C@H](CCCCN)NC(=O)[C@H](CCCCN)NC(=O)[C@H](CS)NC(=O)[C@H](CC(=O)O)NC(=O)[C@H](CCCCN)NC(=O)[C@H](CC(=O)O)NC(=O)[C@H](CO)NC(=O)[C@H](CCC(N)=O)NC(=O)[C@H](CS)NC(=O)[C@@H]1CCCN1C(=O)[C@H](CCCCN)NC(=O)[C@@H](NC(=O)[C@@H](N)Cc1c[nH]c2ccccc12)[C@@H](C)O)C(C)C)C(=O)N[C@@H](CC(N)=O)C(=O)NCC(=O)N[C@@H](Cc1ccccc1)C(=O)N[C@@H](CS)C(=O)N[C@@H](CCCCN)C(=O)N[C@@H](CS)C(=O)N[C@H](C(=O)N[C@@H](CCCNC(=N)N)C(=O)O)C(C)C [NVPM7] (H-WTKPCQSDKDCKKFACRKPKVPKCINGFCKCVR-OH; N-terminus and C-terminus assumed) | 4.46 | 4.5 fold |
| CC[C@H](C)[C@H](NC(=O)[C@H](CS)NC(=O)[C@H](CCCCN)NC(=O)[C@@H]1CCCN1C(=O)[C@@H](NC(=O)[C@H](CCCCN)NC(=O)[C@@H]1CCCN1C(=O)[C@H](CCCCN)NC(=O)[C@H](CCCNC(=N)N)NC(=O)[C@H](CS)NC(=O)[C@H](C)NC(=O)[C@H](Cc1ccccc1)NC(=O)[C@H](CCCCN)NC(=O)[C@H](CCCCN)NC(=O)[C@H](CS)NC(=O)[C@H](CC(=O)O)NC(=O)[C@H](CCCCN)NC(=O)[C@H](CC(=O)O)NC(=O)[C@H](CO)NC(=O)[C@H](CCC(N)=O)NC(=O)[C@H](CS)NC(=O)[C@@H]1CCCN1C(=O)[C@H](CCCCN)NC(=O)[C@@H](NC(=O)[C@@H](N)CO)[C@@H](C)O)C(C)C)C(=O)N[C@@H](CC(N)=O)C(=O)NCC(=O)N[C@@H](Cc1ccccc1)C(=O)N[C@@H](CS)C(=O)N[C@@H](CCCCN)C(=O)N[C@@H](CS)C(=O)N[C@H](C(=O)N[C@@H](CCCNC(=N)N)C(=O)O)C(C)C [NVPM9] (H-STKPCQSDKDCKKFACRKPKVPKCINGFCKCVR-OH; N-terminus and C-terminus assumed) | 1.78 |  |
| CC[C@H](C)[C@H](NC(=O)[C@H](CS)NC(=O)[C@H](CCCCN)NC(=O)[C@@H]1CCCN1C(=O)[C@@H](NC(=O)[C@H](CCCCN)NC(=O)[C@@H]1CCCN1C(=O)[C@H](CCCCN)NC(=O)[C@H](CCCNC(=N)N)NC(=O)[C@H](CS)NC(=O)[C@H](C)NC(=O)[C@H](Cc1ccccc1)NC(=O)[C@H](CCCCN)NC(=O)[C@H](CCCCN)NC(=O)[C@H](CS)NC(=O)[C@H](CC(=O)O)NC(=O)[C@H](CCCCN)NC(=O)[C@H](CC(=O)O)NC(=O)[C@H](CO)NC(=O)[C@H](CCC(N)=O)NC(=O)[C@H](CS)NC(=O)[C@@H]1CCCN1C(=O)[C@H](CCCCN)NC(=O)[C@@H](NC(=O)[C@@H](N)Cc1ccc(O)cc1)[C@@H](C)O)C(C)C)C(=O)N[C@@H](CC(N)=O)C(=O)NCC(=O)N[C@@H](Cc1ccccc1)C(=O)N[C@@H](CS)C(=O)N[C@@H](CCCCN)C(=O)N[C@@H](CS)C(=O)N[C@H](C(=O)N[C@@H](CCCNC(=N)N)C(=O)O)C(C)C [NVPM11] (H-YTKPCQSDKDCKKFACRKPKVPKCINGFCKCVR-OH; N-terminus and C-terminus assumed) | 2.5 |  |
